Results from the supplement of paper PMC10849652.
The list shows a part of the results.

Amino acid sequences for entries named in this document (tags omitted). A change or cut given only in a name is not applied to a line headed by its entry.
UniProt Q16740, whole entry, looked up: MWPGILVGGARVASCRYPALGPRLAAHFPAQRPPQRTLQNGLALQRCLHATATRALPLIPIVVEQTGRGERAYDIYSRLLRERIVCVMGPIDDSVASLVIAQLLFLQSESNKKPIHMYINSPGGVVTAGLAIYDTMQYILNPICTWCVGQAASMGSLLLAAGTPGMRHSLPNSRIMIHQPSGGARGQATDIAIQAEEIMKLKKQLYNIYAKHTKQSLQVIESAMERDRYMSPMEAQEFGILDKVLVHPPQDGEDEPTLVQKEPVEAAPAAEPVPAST
UniProt Q2KHT3: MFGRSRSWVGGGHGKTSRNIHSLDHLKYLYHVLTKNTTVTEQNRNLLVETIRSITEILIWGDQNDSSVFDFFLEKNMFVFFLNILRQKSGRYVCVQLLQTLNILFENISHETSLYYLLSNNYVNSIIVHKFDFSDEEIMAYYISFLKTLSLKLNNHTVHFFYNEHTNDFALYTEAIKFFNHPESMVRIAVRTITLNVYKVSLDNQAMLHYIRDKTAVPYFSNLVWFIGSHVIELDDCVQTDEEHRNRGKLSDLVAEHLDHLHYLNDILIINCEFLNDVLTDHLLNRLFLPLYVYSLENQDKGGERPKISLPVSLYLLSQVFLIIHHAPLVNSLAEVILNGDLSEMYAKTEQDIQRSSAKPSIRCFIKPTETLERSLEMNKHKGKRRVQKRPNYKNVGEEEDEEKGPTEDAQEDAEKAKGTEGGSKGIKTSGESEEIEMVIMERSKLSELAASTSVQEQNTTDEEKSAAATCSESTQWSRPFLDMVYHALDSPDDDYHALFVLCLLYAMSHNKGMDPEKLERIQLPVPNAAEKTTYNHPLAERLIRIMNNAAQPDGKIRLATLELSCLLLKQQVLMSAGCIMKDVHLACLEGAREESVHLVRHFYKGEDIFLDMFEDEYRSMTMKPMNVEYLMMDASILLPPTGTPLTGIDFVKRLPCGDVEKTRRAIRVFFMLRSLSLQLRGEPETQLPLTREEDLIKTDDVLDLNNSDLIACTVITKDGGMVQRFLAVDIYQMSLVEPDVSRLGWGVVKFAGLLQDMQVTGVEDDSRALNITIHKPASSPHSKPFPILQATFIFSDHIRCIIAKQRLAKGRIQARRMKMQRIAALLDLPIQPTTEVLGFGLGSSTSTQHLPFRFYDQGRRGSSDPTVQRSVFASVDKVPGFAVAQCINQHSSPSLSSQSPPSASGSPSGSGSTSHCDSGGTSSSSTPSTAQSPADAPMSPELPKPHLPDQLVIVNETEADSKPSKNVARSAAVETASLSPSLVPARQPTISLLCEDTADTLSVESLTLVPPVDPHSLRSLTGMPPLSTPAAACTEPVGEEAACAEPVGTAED
UniProt O75503: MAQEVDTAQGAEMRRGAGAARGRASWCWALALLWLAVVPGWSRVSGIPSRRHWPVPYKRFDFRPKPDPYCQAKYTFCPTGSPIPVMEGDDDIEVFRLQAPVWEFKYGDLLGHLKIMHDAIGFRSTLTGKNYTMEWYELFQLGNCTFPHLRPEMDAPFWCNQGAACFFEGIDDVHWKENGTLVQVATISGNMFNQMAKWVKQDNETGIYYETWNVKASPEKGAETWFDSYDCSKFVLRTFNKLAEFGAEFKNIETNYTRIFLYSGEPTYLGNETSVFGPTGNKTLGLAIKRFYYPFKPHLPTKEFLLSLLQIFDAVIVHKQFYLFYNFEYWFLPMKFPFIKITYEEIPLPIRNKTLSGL
UniProt Q9NZZ3: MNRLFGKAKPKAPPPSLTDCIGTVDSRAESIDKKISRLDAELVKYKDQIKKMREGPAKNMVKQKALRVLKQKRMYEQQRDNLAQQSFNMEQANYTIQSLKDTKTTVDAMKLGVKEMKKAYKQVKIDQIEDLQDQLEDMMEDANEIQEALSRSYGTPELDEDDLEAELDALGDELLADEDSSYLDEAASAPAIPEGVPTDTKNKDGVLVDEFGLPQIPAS
UniProt Q12873: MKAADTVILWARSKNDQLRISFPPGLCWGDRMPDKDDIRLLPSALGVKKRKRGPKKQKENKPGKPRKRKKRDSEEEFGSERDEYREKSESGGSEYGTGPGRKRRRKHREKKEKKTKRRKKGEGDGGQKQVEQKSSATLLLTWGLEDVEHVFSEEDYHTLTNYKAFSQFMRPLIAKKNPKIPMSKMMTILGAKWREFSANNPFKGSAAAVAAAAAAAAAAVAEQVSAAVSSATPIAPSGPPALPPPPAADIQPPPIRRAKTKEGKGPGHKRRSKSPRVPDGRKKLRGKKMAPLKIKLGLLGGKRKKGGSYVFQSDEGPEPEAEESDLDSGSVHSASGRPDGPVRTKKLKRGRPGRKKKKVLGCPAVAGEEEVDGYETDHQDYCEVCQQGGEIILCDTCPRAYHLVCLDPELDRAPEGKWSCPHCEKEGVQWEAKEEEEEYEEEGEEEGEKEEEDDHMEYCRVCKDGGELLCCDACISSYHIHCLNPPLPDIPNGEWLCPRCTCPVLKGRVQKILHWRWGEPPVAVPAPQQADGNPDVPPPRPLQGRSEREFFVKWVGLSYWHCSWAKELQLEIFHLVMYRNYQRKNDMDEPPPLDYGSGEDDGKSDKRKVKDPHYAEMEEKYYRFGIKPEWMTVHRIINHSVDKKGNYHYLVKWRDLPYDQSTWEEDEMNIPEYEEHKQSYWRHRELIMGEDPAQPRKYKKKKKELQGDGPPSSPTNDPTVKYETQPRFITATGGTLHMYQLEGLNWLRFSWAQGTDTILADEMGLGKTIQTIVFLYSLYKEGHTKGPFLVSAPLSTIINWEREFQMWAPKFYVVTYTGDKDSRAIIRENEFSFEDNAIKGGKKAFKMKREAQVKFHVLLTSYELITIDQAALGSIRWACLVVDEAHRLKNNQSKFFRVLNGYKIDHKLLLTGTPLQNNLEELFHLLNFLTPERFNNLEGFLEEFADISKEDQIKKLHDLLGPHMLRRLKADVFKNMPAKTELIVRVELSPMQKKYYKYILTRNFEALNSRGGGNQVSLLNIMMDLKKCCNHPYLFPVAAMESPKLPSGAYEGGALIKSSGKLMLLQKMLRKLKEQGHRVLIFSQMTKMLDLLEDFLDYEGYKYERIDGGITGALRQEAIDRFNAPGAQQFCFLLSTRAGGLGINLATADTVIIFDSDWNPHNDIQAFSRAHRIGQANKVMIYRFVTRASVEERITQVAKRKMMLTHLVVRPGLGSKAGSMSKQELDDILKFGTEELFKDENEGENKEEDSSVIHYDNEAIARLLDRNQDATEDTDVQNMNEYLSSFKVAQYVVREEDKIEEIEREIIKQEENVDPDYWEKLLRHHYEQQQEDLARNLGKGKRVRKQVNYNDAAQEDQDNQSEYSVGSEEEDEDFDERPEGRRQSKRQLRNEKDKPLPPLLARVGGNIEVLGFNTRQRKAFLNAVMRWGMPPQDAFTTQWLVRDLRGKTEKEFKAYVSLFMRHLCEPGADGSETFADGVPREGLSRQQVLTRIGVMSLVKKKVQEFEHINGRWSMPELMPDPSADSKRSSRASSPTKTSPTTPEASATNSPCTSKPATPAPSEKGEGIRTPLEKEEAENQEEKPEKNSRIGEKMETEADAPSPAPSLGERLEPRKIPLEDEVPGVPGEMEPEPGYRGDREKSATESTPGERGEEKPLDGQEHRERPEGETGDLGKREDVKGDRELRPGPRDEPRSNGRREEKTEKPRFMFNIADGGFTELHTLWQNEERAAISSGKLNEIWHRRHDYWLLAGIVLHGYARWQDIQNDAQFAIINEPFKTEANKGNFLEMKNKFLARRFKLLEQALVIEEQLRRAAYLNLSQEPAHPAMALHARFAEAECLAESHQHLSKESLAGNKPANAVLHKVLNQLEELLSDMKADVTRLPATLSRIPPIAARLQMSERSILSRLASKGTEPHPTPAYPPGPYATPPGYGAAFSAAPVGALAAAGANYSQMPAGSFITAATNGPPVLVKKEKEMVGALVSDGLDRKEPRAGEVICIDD
UniProt Q15846: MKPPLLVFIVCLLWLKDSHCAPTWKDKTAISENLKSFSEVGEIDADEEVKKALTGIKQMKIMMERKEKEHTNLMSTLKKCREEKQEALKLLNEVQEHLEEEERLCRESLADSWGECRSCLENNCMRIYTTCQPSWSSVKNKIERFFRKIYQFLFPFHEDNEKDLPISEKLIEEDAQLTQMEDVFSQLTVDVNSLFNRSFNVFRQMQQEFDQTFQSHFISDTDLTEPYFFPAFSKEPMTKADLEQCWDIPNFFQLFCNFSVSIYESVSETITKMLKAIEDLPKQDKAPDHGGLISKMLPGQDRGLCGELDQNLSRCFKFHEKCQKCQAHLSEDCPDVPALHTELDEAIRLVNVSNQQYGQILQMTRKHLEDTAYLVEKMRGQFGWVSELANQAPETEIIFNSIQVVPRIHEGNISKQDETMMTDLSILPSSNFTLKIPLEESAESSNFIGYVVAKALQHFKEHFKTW
UniProt Q9BUK0: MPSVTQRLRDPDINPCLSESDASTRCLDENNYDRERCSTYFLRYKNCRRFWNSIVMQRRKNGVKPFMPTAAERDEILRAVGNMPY
UniProt O15111: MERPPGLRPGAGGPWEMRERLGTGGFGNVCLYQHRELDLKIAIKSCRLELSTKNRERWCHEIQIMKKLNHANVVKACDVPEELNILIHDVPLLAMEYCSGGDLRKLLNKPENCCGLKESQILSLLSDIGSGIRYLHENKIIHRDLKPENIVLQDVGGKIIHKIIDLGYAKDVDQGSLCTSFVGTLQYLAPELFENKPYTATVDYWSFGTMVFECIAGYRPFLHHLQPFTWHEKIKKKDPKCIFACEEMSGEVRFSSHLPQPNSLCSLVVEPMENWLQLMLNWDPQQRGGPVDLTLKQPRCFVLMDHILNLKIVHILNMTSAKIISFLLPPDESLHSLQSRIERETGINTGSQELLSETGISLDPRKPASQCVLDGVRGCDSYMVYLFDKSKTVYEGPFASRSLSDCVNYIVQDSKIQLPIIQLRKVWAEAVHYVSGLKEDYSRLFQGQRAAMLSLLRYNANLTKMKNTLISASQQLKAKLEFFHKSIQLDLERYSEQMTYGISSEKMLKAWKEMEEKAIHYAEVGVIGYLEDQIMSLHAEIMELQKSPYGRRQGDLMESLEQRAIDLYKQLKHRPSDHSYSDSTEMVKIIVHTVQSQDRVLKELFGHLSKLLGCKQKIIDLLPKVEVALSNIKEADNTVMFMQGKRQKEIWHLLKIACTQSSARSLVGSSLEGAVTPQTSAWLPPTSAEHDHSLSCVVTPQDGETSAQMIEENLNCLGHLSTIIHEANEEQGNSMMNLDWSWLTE
UniProt Q9NY35: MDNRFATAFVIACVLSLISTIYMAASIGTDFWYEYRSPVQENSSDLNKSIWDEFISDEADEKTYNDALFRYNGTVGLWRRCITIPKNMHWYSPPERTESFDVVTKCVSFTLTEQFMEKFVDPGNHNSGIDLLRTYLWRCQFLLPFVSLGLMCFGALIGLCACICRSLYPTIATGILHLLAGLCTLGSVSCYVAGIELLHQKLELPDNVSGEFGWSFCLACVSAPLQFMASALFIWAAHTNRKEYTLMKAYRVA
UniProt Q07065: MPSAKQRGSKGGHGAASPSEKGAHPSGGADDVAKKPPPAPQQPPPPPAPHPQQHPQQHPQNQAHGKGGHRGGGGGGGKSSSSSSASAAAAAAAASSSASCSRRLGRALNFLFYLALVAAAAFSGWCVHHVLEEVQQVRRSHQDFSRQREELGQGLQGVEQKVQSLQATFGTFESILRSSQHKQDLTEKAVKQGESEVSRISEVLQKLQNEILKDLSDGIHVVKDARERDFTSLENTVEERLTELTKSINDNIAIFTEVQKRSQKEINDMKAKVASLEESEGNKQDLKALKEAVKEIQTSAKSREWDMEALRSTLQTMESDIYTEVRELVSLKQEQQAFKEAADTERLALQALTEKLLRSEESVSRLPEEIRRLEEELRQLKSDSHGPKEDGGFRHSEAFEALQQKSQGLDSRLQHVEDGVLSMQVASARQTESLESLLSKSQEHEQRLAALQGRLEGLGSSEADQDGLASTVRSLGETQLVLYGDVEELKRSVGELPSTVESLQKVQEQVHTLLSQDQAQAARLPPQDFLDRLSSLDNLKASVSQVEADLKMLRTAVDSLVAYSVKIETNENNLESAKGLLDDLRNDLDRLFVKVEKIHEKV

How the values were obtained:
Test in all cases: log2 fold change, soluble protein after heating vs DMSO (PISA); higher = thermal stabilisation; K562 lysate, 10 uM; active = over 0.2 and 3.5 SD of the protein, either way, in both replicates (recomputed)
[1] = compound: C1=CC=C(C=C1)[C@H](COC2=CC3=C(C=C2)NC(=O)N3)NC(=O)C4=CC=CN(C4=O)CC5=CC(=C(C=C5)F)F
Procedure, shortened: (§1)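 K562 pellets were dounce-homogenised in PBS pH 7.4 with 1 mM MgCl2, and the crude extract at 1 mg/mL protein was treated with 10 μM compound for 30 min. Aliquots were heated for 3 min across 48°C-58°C, pooled, and brought to 0.5% NP-40 at 4°C; soluble protein was the supernatant after 21,000xg for 90 min. Soluble protein was quantified by TMTpro 16plex LC-MS/MS with channel sums equalised, and reported as log2 fold change in thermal stability against DMSO controls, with values from duplicates.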

[2] = compound: CC1=C(SC2=C1C(=N[C@H](C3=NN=C(N32)C)CC(=O)N)C4=CC=C(C=C4)Cl)C
Procedure, shortened: as §1

[3] = compound: CC1=C2C(=CC=C1)N=C(N(C2=O)C3=CC=CC=C3C)CN4C=NC5=C(N=CN=C54)N
Procedure, shortened: as §1

[4] = compound: Cc1sc2c(c1C)C(c1ccc(Cl)cc1)=N[C@@H](CC(=O)OC(C)(C)C)c1nnc(C)n1-2
Procedure, shortened: as §1

[5] = compound: c1ccc([C@@H]2C[C@H]2NC2CCNCC2)cc1
Procedure, shortened: as §1

Measured: log2 fold change

CLPP (UniProt Q16740)
inactive: [1] 0 | [2] -0.041 | [3] -0.032 | [4] -0.019 | [5] 0.047

CLEC16A isoform 2 (UniProt Q2KHT3)
inactive: [1] -0.035 | [2] 0.137 | [4] 0.098

CLN5 (UniProt O75503)
inactive: [1] -0.02 | [2] 0.071 | [3] -0.13 | [5] 0.009

CKMT2 (UniProt P17540)
inactive: [1] 0.014 | [2] 0.005 | [3] -0.058 | [4] -0.033 | [5] -0.029

CHMP4A (UniProt H0YIN6)
inactive: [1] 0.032 | [2] 0.166 | [4] -0.222 | [5] -0.12

CHMP5 (UniProt Q9NZZ3)
inactive: [1] 0.029 | [2] -0.002 | [3] 0.013 | [4] 0.007 | [5] 0

CLASP2 (UniProt O75122)
inactive: [1] 0.16 | [2] -0.248 | [3] -0.105 | [5] 0.002

CHD3 isoform 3 (UniProt Q12873)
inactive: [1] -0.009 | [2] 0.027 | [3] 0.024 | [4] 0.035 | [5] 0.038

Quoted from the entries so far (4 entries):
CLN5 (UniProt O75503)
inactive: [1] -0.02 | [2] 0.071 | [3] -0.13 | [5] 0.009

CKMT2 (UniProt P17540)
inactive: [1] 0.014 | [2] 0.005 | [3] -0.058 | [4] -0.033 | [5] -0.029

CHMP4A (UniProt H0YIN6)
inactive: [1] 0.032 | [2] 0.166 | [4] -0.222 | [5] -0.12

CHMP5 (UniProt Q9NZZ3)
inactive: [1] 0.029 | [2] -0.002 | [3] 0.013 | [4] 0.007 | [5] 0

(next part)

CLUL1 (UniProt Q15846)
inactive: [1] -0.204 | [2] -0.205 | [3] 0.026 | [5] -0.042

CHCHD7 isoform 4 (UniProt Q9BUK0)
inactive: [1] 0.08 | [2] -0.052 | [3] 0.074 | [4] -0.071 | [5] -0.22

CHUK (UniProt O15111)
inactive: [1] -0.02 | [2] 0.032 | [3] 0 | [4] -0.026 | [5] 0.015

CLDND1 (UniProt Q9NY35)
inactive: [1] 0.007 | [2] -0.04 | [3] -0.024 | [4] -0.02 | [5] -0.054

CKAP4 (UniProt Q07065)
inactive: [1] 0.005 | [2] -0.059 | [4] -0.013 | [5] 0.231
